Results from PubChem BioAssay AID256 (DTP/NCI, 2004).
The list is a part of this screen's results and no random one: it is rich in T/C values a quarter to a half above the control, in often repeated tests (any T/C) and in doses without a T/C. Other doses and runs of a compound stand elsewhere. T/C: endpoint of the treated group in % of that of the vehicle group. Some doses have a count of surviving animals in place of a T/C: the source files T/C as zero there, which appears to mark a toxic dose or a test without result, not a measured value. Some doses without a T/C left all or most animals alive at the check, yet need not have been tolerated: survival well below the control is almost never listed, so the zero probably covers shortened survival too. Counts of survivors are from the toxicity check (mostly the fifth day) where no day follows; animals may have died later. Schedule codes are those of the source, taken here to give the interval after Q, in days (D) or hours (H), and the number of doses after X. Some entries hold several experiments; the values are given in rising order. Signs of the kind (2×) count equal records among those shown. Some schedules carry Z or #; the key to these is not given. For survival time, this PubChem deposit counts one and a half times the control or more as active, and values a quarter to a half above the control carry no call in these data; other NCI protocols may use other cut-offs. Some T/C values are followed by the survivors on the day toxicity was checked, most often the fifth; without a count, all were alive then.

Test system: CD2F1 mice, L1210 leukemia ip, survival T/C
Assay: NCI In Vivo Anticancer Drug Screen. Data for tumor model L1210 Leukemia (intraperitoneal) in CD2F1 (CDF1) mice
Settings: higher T/C = longer survival
Procedure, shortened: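 Tumor-bearing mice (transplanted tumor) were split into treated and vehicle control groups, and the measured endpoint of each treated group was divided by that of its vehicle controls.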

[1] = T/C endpoint: mean survival time, dose: 400.0 mg/kg/injection, schedule: Q04DX003 (ip), vehicle: saline with Tween-80
[2] = T/C endpoint: mean survival time, dose: 200.0 mg/kg/injection, schedule: Q01DX009 (ip), vehicle: saline with Tween-80
[3] = T/C endpoint: mean survival time, dose: 400.0 mg/kg/injection, schedule: Q01DX009 (ip), vehicle: saline with Tween-80
[4] = T/C endpoint: mean survival time, dose: 75.0 mg/kg/injection, schedule: Q01DX001 (ip), vehicle: saline
[5] = T/C endpoint: mean survival time, dose: 150.0 mg/kg/injection, schedule: Q01DX001 (ip), vehicle: saline
[6] = T/C endpoint: mean survival time, dose: 300.0 mg/kg/injection, schedule: Q01DX001 (ip), vehicle: saline

SMILES: C[n+]1c(-c2cccc(-c3ccccc3)c2)c2cc(N)ccc2c2ccccc21
- survivor count (T/C endpoint: mean survival time, dose: 12.5 mg/kg/injection, schedule: Q01DX009 (ip), vehicle: other): 5 of 6 and 6 of 6
- survivor count (T/C endpoint: mean survival time, dose: 25.0 mg/kg/injection, schedule: Q01DX009 (ip), vehicle: other): 1 of 6
- survivor count (T/C endpoint: mean survival time, dose: 50.0 mg/kg/injection, schedule: Q01DX009 (ip), vehicle: other): 0 of 6
- survivor count (T/C endpoint: mean survival time, dose: 100.0 mg/kg/injection, schedule: Q01DX009 (ip), vehicle: other): 0 of 6

SMILES: COc1cc(CN(C)CCO)ccc1OCc1ccccc1
- survivor count [1]: 0 of 6

SMILES: COC(=O)c1ccc(N2C(=O)C=CC2=O)cc1
- survivor count (T/C endpoint: mean survival time, dose: 6.0 mg/kg/injection, schedule: Q01DX009 (ip), vehicle: saline with Tween-80): 6 of 6

SMILES: CCCN(CCC)N=Nc1c(C(=O)OC)n[nH]c1C
- survivor count [2]: 3 of 6
- survivor count (T/C endpoint: mean survival time, dose: 266.0 mg/kg/injection, schedule: Q01DX009 (ip), vehicle: saline with Tween-80): 6 of 6
- survivor count [3]: 0 of 6 and 1 of 6

SMILES: CCCCCCCCCC(=O)NCC[N+](C)(C)C
- survivor count [4]: 3 of 6
- survivor count [5]: 0 of 6
- survivor count [6]: 0 of 6

SMILES: COc1ccc(CN(CCO)Cc2ccccc2)cc1OC
- survivor count [1]: 0 of 6

SMILES: O=NN1CCOC1=NC1CCCCC1
- survivor count (T/C endpoint: mean survival time, dose: 800.0 mg/kg/injection, schedule: Q01DX001 (ip), vehicle: distilled water + Tween-80): 0 of 6

SMILES: O=[N+]([O-])C1CC=CCC1C(Cl)(Cl)Cl (stereo not given)
- survivor count (T/C endpoint: mean survival time, dose: 20.0 mg/kg/injection, schedule: Q01DX009 (ip), vehicle: saline with Tween-80): 0 of 6
- survivor count (T/C endpoint: mean survival time, dose: 100.0 mg/kg/injection, schedule: Q04DX003 (ip), vehicle: saline with Tween-80): 0 of 6
- survivor count (T/C endpoint: mean survival time, dose: 200.0 mg/kg/injection, schedule: Q04DX003 (ip), vehicle: saline with Tween-80): 0 of 6
- survivor count [1]: 0 of 6

SMILES: CC#CC(=O)O
- survivor count (T/C endpoint: mean survival time, dose: 200.0 mg/kg/injection, schedule: Q04DX002 (ip), vehicle: saline): 1 of 3
- survivor count (T/C endpoint: mean survival time, dose: 400.0 mg/kg/injection, schedule: Q04DX002 (ip), vehicle: saline): 0 of 3

SMILES: CN(C)CCOc1ccccc1Cc1ccccc1
- survivor count [1]: 2 of 6

SMILES: C=C1C(O)CC2CC1C2(C)C (stereo not given)
- survivor count (T/C endpoint: mean survival time, dose: 100.0 mg/kg/injection, schedule: Q01DX009 (ip), vehicle: saline with Tween-80): 3 of 6
- survivor count [2]: 0 of 6

SMILES: CN=C(N)c1ccc(N=C(N)c2ccc(NC(=O)c3ccc(C(N)=NC)cc3)cc2)cc1
- survivor count (T/C endpoint: mean survival time, dose: 50.0 mg/kg/injection, schedule: Q01DX Z (ip), vehicle: water): 0 of 6
- survivor count (T/C endpoint: mean survival time, dose: 75.0 mg/kg/injection, schedule: Q01DX Z (ip), vehicle: water): 0 of 6
- survivor count (T/C endpoint: mean survival time, dose: 100.0 mg/kg/injection, schedule: Q01DX Z (ip), vehicle: water): 0 of 6

SMILES: CC(C)N(C=C(C#N)C#N)C(C)C
- survivor count (T/C endpoint: mean survival time, dose: 50.0 mg/kg/injection, schedule: Q01DX009 (ip), vehicle: saline with Tween-80): 1 of 6
- survivor count (T/C endpoint: mean survival time, dose: 100.0 mg/kg/injection, schedule: Q01DX001 (ip), vehicle: saline with Tween-80): 0 of 6
- survivor count (T/C endpoint: mean survival time, dose: 200.0 mg/kg/injection, schedule: Q01DX001 (ip), vehicle: saline with Tween-80): 0 of 6
- survivor count (T/C endpoint: mean survival time, dose: 400.0 mg/kg/injection, schedule: Q01DX001 (ip), vehicle: saline with Tween-80): 0 of 6

SMILES: CCN1CCS(=O)(=O)C1=O
- survivor count (T/C endpoint: mean survival time, dose: 300.0 mg/kg/injection, schedule: Q01DX001 (ip), vehicle: other): 0 of 6

SMILES: S=c1nc[nH]c2ccccc12
- survivor count [1]: 3 of 3 and 6 of 6

SMILES: C/C(=N\NC(N)=O)C(F)(F)F
- survivor count [1]: 3 of 6

SMILES: CC(O)CC1CCCC(CC(C)O)N1 (stereo not given)
- survivor count [4]: 0 of 6 and 1 of 6
- survivor count (T/C endpoint: mean survival time, dose: 80.0 mg/kg/injection, schedule: Q01DX001 (ip), vehicle: saline): 1 of 6
- survivor count [5]: 0 of 6 (2×)
- survivor count [6]: 0 of 6 (2×)

SMILES: C(=C\CN(Cc1ccccc1)Cc1ccccc1)/CN(Cc1ccccc1)Cc1ccccc1
- survivor count (T/C endpoint: mean survival time, dose: 400.0 mg/kg/injection, schedule: Q01DX009 (ip), vehicle: Klucel (hydroxypropylcellulose) (HPC)): 5 of 6

SMILES: CCOC(=O)Nc1cc2c(c(N)n1)N=C(c1ccccc1)CO2
- T/C (T/C endpoint: median survival time, dose: 400.0 mg/kg/injection, schedule: Q01DX009 (ip), vehicle: saline with Tween-80): 125 % of control
- T/C (T/C endpoint: median survival time, dose: 800.0 mg/kg/injection, schedule: Q01DX009 (ip), vehicle: saline with Tween-80): 136 [5 of 6 alive] and 144 % of control

SMILES: CC(C)(C)c1cc(O)c(O)c(C(C)(C)C)c1
- survivor count (T/C endpoint: mean survival time, dose: 400.0 mg/kg/injection, schedule: Q04DX003 (ip), vehicle: other): 1 of 6

SMILES: CC(N)(CCC(=O)O)C(=O)O (stereo not given)
- survivor count [3]: 2 of 6

SMILES: N#C[Se-].c1ccc([Te+](c2ccccc2)c2ccccc2)cc1
- survivor count (T/C endpoint: median survival time, dose: 25.0 mg/kg/injection, schedule: Q01DX009 (ip), vehicle: Klucel (hydroxypropylcellulose) (HPC)): 0 of 6

SMILES: CN(C)/N=C(\CBr)c1ccc(Br)cc1
- survivor count (T/C endpoint: mean survival time, dose: 400.0 mg/kg/injection, schedule: Q01DX001 (ip), vehicle: saline): 2 of 6

SMILES: CCCCCCCCCCCCCCCCCCOCCOCCOCCOCCO
- survivor count (T/C endpoint: mean survival time, dose: 100.0 mg/kg/injection, schedule: Q04DX002 (ip), vehicle: saline with Tween-80): 1 of 3
- survivor count (T/C endpoint: mean survival time, dose: 200.0 mg/kg/injection, schedule: Q04DX002 (ip), vehicle: saline with Tween-80): 0 of 3

SMILES: Nc1cc2c(c[n+](CCCCCCCC[n+]3cc4c5ccccc5c(N)cc4c4ccccc43)c3ccccc23)c2ccccc12
- T/C (T/C endpoint: mean survival time, dose: 1.56 mg/kg/injection, schedule: Q04DX003 (ip), vehicle: other): 128 % of control
- T/C (T/C endpoint: mean survival time, dose: 3.13 mg/kg/injection, schedule: Q04DX003 (ip), vehicle: other): 135 % of control
- T/C (T/C endpoint: mean survival time, dose: 6.25 mg/kg/injection, schedule: Q04DX003 (ip), vehicle: other): 132 and 141 % of control
- T/C (T/C endpoint: mean survival time, dose: 12.5 mg/kg/injection, schedule: Q04DX003 (ip), vehicle: other): 147 % of control
- T/C (T/C endpoint: mean survival time, dose: 25.0 mg/kg/injection, schedule: Q04DX003 (ip), vehicle: other): 147 and 147 % of control [5 of 6 alive]

SMILES: O=NN(CCCl)C(=O)NCc1ccc[n+]([O-])c1
- T/C (T/C endpoint: mean survival time, dose: 1.56 mg/kg/injection, schedule: Q01DX001 (ip), vehicle: water): 134 % of control
- T/C (T/C endpoint: mean survival time, dose: 3.13 mg/kg/injection, schedule: Q01DX001 (ip), vehicle: water): 139 % of control
- survivor count (T/C endpoint: mean survival time, dose: 50.0 mg/kg/injection, schedule: Q01DX001 (ip), vehicle: water): 4 of 6 and 6 of 6
- survivor count (T/C endpoint: mean survival time, dose: 100.0 mg/kg/injection, schedule: Q01DX001 (ip), vehicle: water): 5 of 6
